Assay results as given in patent US20250170103A1, “4-(6-OXO-2-(TRIFLUOROMETHYL)-3,6-DIHYDROCHROMENO[7,8-D]IMIDAZOL-8-YL)BENZONITRILE FOR USE IN THE TREATMENT OF DISEASES AND CONDITIONS ASSOCIATED WITH MOVEMENT DISORDERS” (OnTrack Therapeutics Limited, priority 2022, published 2025).

Tested on: primary SOD1 transgenic spinal cord motor neurons injured with glutamate
Test: In vitro ALS model: glutamate-injured primary spinal motor neurons (MAP2/TDP43, 24 hours)
Type: cell-based, rat
Conditions: positive controls: Riluzole 5 μM, BDNF 50 ng/ml, glutamate 5 μM 20 min, compared to the control, FIG. 5
Experimental: Cells were mechanically dissociated by three forced passages through the tip of a 10-ml pipette. Cells were then centrifuged at 515×g for 10 min at 4° C. […] Viable cells were counted in a Neubauer cytometer, using the trypan blue exclusion test. […] The medium was changed every 2 days.

Nc1nc2ccc(OC(F)(F)F)cc2s1 [Riluzole, reference compound]
number of motor neurons: statistically significant increase in the number of motor neurons
